Results are given in words; binding and its absence hold for the method and conditions named. Binding seen in cells or lysates may run through a third protein. These calls come from enrichment with a bait or labelling near it, and not all partners need be listed.
Target: Chd1-Flag (from the Chd1-Flag knock-in mouse ES cell line) (mouse) (UniProt P40201)
Test: affinity purification with mass spectrometry; Flag IP from nuclear extract of Chd1-Flag knock-in mouse ES cells at 150 mM salt; IgG IP as negative control; gel slices, trypsin, LC-MS/MS

The chains behind the UniProt entries cited, without tags or fusion partners.
UniProt P40201: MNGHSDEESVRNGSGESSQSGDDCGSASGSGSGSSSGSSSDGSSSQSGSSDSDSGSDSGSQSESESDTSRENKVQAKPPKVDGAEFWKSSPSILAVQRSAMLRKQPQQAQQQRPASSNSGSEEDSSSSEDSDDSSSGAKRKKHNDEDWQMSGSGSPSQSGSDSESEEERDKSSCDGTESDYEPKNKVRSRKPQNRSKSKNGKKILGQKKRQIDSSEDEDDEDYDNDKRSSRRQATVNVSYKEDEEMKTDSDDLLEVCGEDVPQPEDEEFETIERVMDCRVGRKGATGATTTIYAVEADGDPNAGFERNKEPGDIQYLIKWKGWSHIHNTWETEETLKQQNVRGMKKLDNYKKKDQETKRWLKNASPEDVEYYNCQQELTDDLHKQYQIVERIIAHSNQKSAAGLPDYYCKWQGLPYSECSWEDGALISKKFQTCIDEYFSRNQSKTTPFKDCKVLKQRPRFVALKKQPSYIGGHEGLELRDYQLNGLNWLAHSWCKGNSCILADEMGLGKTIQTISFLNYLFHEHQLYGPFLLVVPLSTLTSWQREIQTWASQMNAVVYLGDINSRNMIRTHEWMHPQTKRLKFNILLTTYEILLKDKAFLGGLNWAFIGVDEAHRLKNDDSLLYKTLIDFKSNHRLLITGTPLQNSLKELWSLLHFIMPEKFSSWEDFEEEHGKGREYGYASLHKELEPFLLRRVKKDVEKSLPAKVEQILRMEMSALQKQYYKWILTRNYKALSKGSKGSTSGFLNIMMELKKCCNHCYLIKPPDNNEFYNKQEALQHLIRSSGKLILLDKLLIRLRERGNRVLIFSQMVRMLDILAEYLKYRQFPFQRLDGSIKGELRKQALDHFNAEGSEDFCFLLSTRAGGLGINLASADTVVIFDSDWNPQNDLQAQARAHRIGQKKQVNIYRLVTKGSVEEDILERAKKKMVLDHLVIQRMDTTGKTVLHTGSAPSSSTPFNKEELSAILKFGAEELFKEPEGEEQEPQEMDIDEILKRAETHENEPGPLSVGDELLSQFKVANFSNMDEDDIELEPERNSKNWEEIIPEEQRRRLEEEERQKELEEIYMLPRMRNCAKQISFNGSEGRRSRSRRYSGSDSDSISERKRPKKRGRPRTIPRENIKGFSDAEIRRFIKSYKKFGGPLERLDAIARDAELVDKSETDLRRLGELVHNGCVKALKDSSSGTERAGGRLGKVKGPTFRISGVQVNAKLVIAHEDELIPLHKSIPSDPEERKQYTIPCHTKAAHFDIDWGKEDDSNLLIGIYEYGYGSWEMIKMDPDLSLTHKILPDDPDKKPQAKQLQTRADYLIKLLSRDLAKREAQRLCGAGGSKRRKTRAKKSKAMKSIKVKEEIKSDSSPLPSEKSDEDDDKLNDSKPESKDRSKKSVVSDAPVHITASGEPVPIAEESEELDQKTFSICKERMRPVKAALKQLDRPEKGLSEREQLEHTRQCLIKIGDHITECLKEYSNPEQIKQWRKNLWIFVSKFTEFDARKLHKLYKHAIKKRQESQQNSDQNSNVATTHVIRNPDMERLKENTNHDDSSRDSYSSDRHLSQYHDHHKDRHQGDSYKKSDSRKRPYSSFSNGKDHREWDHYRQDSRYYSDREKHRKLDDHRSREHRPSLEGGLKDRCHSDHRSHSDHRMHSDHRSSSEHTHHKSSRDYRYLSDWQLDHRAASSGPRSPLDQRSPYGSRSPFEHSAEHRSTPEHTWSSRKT
UniProt Q08943: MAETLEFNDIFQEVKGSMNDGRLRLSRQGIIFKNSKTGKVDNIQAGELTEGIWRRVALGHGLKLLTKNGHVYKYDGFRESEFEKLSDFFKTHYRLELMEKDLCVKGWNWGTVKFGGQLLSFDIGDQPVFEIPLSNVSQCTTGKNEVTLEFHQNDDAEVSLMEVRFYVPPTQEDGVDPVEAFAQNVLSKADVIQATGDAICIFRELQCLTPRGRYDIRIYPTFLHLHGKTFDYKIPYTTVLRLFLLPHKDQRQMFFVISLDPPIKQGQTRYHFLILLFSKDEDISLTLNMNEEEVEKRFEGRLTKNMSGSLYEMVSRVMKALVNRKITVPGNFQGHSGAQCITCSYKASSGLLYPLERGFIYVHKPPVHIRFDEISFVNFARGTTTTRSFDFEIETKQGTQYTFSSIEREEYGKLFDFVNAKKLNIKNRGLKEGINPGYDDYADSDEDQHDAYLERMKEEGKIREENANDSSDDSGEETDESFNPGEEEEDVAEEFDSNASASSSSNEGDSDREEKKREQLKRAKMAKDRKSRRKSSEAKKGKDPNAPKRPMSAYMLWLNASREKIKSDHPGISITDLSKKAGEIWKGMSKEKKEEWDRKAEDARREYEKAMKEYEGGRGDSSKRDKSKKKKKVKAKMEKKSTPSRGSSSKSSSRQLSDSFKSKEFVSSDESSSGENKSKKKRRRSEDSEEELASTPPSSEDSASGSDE
UniProt Q64511: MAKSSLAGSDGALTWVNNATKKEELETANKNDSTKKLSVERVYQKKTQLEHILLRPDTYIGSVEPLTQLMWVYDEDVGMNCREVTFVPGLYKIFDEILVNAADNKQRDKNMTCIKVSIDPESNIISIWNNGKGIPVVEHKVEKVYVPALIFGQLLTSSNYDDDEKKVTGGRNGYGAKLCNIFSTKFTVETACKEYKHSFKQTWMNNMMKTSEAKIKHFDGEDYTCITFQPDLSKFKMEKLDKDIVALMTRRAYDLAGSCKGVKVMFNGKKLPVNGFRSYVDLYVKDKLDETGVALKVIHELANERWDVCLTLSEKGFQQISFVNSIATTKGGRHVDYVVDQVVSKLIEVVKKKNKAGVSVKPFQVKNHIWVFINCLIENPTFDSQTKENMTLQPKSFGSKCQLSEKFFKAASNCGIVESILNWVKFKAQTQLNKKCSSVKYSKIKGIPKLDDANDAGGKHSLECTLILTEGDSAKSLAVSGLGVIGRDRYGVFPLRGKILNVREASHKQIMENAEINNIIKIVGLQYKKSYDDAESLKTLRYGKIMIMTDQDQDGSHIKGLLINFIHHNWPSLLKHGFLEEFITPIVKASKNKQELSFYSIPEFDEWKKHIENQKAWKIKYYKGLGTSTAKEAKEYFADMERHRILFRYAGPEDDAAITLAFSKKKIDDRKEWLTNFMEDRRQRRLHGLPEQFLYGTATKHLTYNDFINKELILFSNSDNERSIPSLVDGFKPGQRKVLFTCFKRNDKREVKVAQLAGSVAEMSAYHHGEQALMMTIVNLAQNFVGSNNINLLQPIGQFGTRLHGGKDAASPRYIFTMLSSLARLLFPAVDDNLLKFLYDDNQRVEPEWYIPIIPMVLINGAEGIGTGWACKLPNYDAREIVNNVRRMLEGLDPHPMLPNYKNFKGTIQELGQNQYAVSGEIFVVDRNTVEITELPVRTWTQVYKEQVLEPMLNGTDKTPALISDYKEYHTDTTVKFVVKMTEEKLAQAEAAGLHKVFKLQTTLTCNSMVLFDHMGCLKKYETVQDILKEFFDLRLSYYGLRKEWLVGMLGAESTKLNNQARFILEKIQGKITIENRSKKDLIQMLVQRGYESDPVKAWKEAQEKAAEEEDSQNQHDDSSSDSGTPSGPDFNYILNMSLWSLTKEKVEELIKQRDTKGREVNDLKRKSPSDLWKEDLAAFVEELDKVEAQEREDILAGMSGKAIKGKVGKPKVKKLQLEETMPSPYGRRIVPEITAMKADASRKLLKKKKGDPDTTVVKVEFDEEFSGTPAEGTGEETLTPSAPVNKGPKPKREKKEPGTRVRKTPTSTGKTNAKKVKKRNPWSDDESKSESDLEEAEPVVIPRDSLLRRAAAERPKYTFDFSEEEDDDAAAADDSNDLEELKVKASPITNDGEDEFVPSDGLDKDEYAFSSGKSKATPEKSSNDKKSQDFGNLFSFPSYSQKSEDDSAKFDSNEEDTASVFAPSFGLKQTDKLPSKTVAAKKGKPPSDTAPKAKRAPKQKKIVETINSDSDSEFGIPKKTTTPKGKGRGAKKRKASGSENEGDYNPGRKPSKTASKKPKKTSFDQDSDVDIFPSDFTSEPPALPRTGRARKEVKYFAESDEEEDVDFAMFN

Row | Molecule | binding
1 | Ssrp1 (from UniProt Q08943 1-708) | binds
2 | histone variant H2A.X (from UniProt P27661 1-143) | binds
3 | MRN complex member Mre11 (protein, UniProt Q61216 1-706) MSPTDPLDDEDTFKILVATDIHLGFMEKDAVRGNDTFVTFDEILRLALENEVDFILLGGDLFHENKPSRKTLHSCLELLRKYCMGDRPVQFEVISDQSVNFGFSKFPWVNYQDGNLNISIPVFSIHGNHDDPTGADALCALDVLSCAGFVNHFGRSMSVEKVDISPVLLQKGSTKLALYGLGSIPDERLYRMFVNKKVTMLRPKEDENSWFNLFVIHQNRSKHGNTNFIPEQFLDDFIDLVIWGHEHECKIGPIKNEQQLFYVSQPGSSVVTSLSPGEAVKKHVGLLRIKGRKMNMQKLPLRTVRRFFIEDVVLANHPNLFNPDNPKVTQAIQSFCLEKIEEMLDSAERERLGNPQQPGKPLIRLRVDYSGGFEPFNVLRFSQKFVDRVANPKDVIHFFRHREQKGKTGEEINFGMLITKPASEGATLRVEDLVKQYFQTAEKNVQLSLLTERGMGEAVQEFVDKEEKDAIEELVKYQLEKTQRFLKERHIDALEDKIDEEVRRFRESRQRNTNEEDDEVREAMSRARALRSQSETSTSAFSAEDLSFDTSEQTANDSDDSLSAVPSRGRGRGRGRRGARGQSSAPRGGSQRGRDTGLEITTRGRSSKATSSTSRNMSIIDAFRSTRQQPSRNVAPKNYSETIEVDDSDEDDIFPTNSRADQRWSGTTSSKRMSQSQTAKGVDFESDEDDDDDPFMSSSCPRRNRR | binds

The next lines start with the values.

Row | binding | Molecule
4 | binds | Bptf (from UniProt A2A654 1-3036)
5 | binds | topoisomerase 2β (Top2β) (from UniProt Q64511 1-1612) (enzyme)

— publication PMC8357957
